Assay results: patent publication US20230265131A1
No constants are given. Whether binding was seen depends on the method and setting. Some entries that bind do so weakly or less than the wild type. Tags and fused reporters may be left off the sequences shown.

Sequences of proteins named here, by UniProt entry; tags and fusion partners are left off.
UniProt O60603: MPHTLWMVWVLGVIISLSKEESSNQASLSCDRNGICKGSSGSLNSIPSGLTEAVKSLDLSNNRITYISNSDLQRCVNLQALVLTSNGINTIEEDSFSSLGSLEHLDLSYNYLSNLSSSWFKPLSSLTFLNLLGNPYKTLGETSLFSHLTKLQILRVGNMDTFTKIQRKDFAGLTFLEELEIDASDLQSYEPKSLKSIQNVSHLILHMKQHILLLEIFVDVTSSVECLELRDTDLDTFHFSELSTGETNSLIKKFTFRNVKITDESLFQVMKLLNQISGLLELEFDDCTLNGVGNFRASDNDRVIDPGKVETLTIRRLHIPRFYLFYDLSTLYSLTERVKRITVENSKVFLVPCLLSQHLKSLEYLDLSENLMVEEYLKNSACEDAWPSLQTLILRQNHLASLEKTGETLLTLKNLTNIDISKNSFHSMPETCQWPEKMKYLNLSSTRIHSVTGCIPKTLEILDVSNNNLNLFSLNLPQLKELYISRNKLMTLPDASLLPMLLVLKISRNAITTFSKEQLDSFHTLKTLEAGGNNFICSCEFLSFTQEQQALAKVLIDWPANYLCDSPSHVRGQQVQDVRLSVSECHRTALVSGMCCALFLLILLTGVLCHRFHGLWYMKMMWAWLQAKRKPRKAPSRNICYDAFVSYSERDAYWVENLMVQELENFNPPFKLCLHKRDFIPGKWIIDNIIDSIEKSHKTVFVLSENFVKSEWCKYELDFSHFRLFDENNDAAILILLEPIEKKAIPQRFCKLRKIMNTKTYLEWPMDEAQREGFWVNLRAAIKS

Target: human Toll-like receptor 2 (hTLR2) on HEK-Blue hTLR2 reporter cells (human) (UniProt O60603)
Assay: reporter cell line expressing hTLR2; interaction inferred from the NF-kB/SEAP read-out

binding: binds
B1: Amuc-1100 polypeptide of Akkermansia muciniphila, mature, with added start methionine and C-terminal His-Tag (Example 1 construct) (protein, not shown: small tags and cut ends)
chain: MIVNSKRSELDKKISIAAKEIKSANAAEITPSRSSNEELEKELNRYAKAVGSLETAYKPFLASSALVPTTPTAFQNELKTFRDSLISSCKKKNILITDTSSWLGFQVYSTQAPSVQAASTLGFELKAINSLVNKLAECGLSKFIKVYRPQLPIETPANNPEESDEADQAPWTPMPLEIAFQGDRESVLKAMNAITGMQDYLFTVNSIRIRNERMMPPPIANPAAAKPAAAQPATGAASLTPADEAAAPAAPAIQQVIKPYMGKEQVFVQVSLNLVHFNQPKAQEPSED
